Measurements from PubChem BioAssay AID602449 (Sanford-Burnham Center for Chemical Genomics, 2012).
Only a part is listed here, and it is no random draw. The source made the active and inactive calls.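 How the source made its calls: active means inhibition of 50% or more, scaled per plate between neutral and stimulator controls; inactive means the rest.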

Assay: mitochondrial permeability transition pore inhibitors, primary screen, biochemical, isolated mouse mitochondria, absorbance (AID 602449);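 further: 0% = DMSO wells given calcium and 100% = 1 mM EGTA wells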
Details: Ca2+ swelling absorbance, 30 min, at 10 µM, active compounds read high

inhibition, active:
Cc1ccc(-c2cc(C(=O)N3N=C(C(F)F)CC3(O)C(F)F)c3ccccc3n2)cc1C (stereo not given) 82%, O=[N+]([O-])c1ccc(-c2nc(-c3cccs3)c(-c3cccs3)[nH]2)cc1 98.9%, CC(C)(C)C1CCC2(CC1)C(C#N)=C(SCC(=O)Nc1ccccc1)NC(=O)C2C#N (stereo not given) 95.4%, CC(C)C(=O)NC(Nc1cc(C(F)(F)F)ccc1Cl)C(Cl)(Cl)Cl (stereo not given) 98.5%, O=C(Nc1ccccc1)c1ccccc1NS(=O)(=O)c1ccc(Cl)s1 87.8%, Cc1ccc(S(=O)(=O)N2CCN(c3ncnc4ccccc34)CC2)cc1 93%, Cc1cc(/C=C\c2ccc3cc(N(C)C)ccc3[n+]2C)c(C)n1-c1ccccc1 133%, CCc1ccc(-n2cccc2/C=C2/C(=N)N3C(=NC2=O)SN=C3S(C)(=O)=O)cc1 67.1%, O=C(Nc1ccncc1)c1ccc(-c2ccccc2)cc1 97.1%, COc1cccc(C(=O)NN/C(C)=C/C(=O)C(F)(F)C(F)(F)C(F)(F)F)c1 73.3%
